Laboratory results taken from patent US20210179680A1, “POLYPEPTIDE, DERIVATIVES THEREOF, AND APPLICATION THEREOF IN PREPARATION OF DRUGS HAVING RESISTANCE TO PULMONARY FIBROSIS” (priority 2016, published 2021).
No constants are given. Whether binding was seen depends on the method and setting. Some binding calls cover weakened binding; strength is not graded here.

Protein sequences, listed by entry. Tags and fused reporters are not part of them.
UniProt Q96RU7: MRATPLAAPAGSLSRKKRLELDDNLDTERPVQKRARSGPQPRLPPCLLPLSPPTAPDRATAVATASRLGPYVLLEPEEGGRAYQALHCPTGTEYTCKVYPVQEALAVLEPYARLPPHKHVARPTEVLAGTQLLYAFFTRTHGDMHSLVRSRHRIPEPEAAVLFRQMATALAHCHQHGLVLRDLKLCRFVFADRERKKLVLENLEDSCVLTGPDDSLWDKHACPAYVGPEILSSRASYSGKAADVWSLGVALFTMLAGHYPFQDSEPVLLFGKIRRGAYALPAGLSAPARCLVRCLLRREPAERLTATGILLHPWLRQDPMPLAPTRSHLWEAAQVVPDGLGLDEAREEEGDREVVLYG

Columns and labels:
[1] = target: Purified TRB3 protein (purchased from RD) (UniProt Q96RU7); experiment: SPR, Biacore T200
[2] = target: Purified TRB3 protein (purchased from RD) (UniProt Q96RU7); experiment: SPR
[3] = target: Purified TRB3 protein (purchased from RD) (UniProt Q96RU7); experiment: SPR (Biacore T200), TRB3 amine-coupled to the chip, peptide injected at 3.125-800 nM, HBS-EP, 25 C

Measured: binding

HLMACFTCAKKLKKR [polypeptide MR2]
binds: all assays above
